Experimental data: article PMC2691602
These are yes or no findings as the source states them, for the method shown. In cells and extracts the contact can be indirect.

Protein sequences, listed by entry. Tags and fused reporters are not part of them.
UniProt Q15796: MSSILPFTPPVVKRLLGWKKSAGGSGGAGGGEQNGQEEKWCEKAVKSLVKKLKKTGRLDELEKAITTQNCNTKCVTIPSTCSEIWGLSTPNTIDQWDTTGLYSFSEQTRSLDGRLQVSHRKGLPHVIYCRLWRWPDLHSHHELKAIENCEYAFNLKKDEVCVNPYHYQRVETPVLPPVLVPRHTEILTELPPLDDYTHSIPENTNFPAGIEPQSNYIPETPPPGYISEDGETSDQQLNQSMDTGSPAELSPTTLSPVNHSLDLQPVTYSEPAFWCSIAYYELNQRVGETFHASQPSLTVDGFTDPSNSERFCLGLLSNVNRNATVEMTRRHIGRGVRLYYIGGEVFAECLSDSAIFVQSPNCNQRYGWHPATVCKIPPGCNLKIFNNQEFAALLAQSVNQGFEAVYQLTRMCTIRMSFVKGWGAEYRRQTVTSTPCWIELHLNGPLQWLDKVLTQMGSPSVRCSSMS

Target: T1, human tRNase Z^L (long form of tRNA 3′ processing endoribonuclease), endogenous (human (endogenous in 293 cells)) (UniProt Q9BQ52)
T1 sequence: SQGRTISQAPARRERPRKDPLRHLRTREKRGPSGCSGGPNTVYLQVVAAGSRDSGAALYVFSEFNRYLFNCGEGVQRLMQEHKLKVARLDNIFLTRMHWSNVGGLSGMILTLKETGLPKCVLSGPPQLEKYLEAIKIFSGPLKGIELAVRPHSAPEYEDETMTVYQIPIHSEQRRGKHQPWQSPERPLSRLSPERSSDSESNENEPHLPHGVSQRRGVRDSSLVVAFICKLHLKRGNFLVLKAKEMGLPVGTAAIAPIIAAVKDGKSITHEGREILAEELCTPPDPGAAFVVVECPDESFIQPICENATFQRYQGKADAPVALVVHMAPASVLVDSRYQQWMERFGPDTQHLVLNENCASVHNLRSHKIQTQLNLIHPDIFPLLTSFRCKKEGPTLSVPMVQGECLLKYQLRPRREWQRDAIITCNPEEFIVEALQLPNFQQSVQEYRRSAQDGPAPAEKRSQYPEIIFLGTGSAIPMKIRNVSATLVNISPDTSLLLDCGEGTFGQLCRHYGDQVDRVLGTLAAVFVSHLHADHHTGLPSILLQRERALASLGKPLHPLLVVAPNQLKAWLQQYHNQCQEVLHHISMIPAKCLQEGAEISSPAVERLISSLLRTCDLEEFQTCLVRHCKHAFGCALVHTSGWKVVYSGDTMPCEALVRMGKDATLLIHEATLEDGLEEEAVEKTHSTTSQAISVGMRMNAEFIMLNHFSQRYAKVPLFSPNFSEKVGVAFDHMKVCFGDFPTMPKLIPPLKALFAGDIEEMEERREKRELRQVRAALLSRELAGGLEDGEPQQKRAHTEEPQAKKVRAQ
Assay: co-IP; endogenous human tRNase Z^L; no figure and no details given; method implied by the cited co-immunoprecipitation that it is set against

binding: no binding
Substance: Smad2 (from UniProt Q15796 1-467)
